Assay results taken from patent US20050019801A1, “Stem cell-based methods for identifying and characterizing agents” (Curis, Inc., priority 2003, published 2005).
At least one structure is not confirmed: it was looked up by name or label, or the drawing left a doubt.

Test system: Mouse embryonic stem cells (embryoid bodies)
Assay: Neuronal differentiation of mouse embryonic stem cell embryoid bodies, marker expression (Math1, Pax7, HB9)
Format: cell-based
Details: embryoid bodies treated with 100 nM RA alone

CC1=C(/C=C/C(C)=C/C=C/C(C)=C/C(=O)O)C(C)(C)CCC1 [RA, retinoic acid]
expression of the intermediate neuronal marker Pax7: promoted expression
